Test results from publication PMC12209112.

Chains of the proteins cited; added tags and fusions are not shown. Residues count along the entry.
UniProt P35465: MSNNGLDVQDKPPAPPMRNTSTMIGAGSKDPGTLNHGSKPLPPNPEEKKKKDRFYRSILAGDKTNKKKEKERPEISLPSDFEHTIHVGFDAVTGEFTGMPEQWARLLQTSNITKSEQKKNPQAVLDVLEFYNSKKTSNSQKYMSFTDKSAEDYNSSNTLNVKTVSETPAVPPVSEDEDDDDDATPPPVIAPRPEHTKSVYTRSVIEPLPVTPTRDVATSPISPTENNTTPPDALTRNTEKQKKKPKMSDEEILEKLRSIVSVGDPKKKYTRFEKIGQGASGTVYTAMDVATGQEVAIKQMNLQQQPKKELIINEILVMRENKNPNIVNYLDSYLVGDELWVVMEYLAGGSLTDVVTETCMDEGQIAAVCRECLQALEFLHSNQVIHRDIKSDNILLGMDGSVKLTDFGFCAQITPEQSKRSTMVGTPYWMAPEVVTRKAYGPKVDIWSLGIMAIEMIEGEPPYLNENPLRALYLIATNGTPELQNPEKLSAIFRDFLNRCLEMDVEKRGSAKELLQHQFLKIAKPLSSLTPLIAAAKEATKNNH
UniProt Q63570: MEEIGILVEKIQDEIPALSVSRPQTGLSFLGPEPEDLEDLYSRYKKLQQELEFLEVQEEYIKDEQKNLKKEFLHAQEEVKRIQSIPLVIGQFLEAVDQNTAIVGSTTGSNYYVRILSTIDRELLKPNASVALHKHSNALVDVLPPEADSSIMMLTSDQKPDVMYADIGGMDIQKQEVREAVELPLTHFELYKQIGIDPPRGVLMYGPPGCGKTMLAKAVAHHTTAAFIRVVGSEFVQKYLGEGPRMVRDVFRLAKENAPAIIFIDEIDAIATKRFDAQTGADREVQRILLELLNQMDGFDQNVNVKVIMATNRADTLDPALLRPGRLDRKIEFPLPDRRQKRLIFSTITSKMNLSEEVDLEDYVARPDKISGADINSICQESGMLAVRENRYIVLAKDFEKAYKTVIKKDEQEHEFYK
UniProt P20786, residues 24-1088: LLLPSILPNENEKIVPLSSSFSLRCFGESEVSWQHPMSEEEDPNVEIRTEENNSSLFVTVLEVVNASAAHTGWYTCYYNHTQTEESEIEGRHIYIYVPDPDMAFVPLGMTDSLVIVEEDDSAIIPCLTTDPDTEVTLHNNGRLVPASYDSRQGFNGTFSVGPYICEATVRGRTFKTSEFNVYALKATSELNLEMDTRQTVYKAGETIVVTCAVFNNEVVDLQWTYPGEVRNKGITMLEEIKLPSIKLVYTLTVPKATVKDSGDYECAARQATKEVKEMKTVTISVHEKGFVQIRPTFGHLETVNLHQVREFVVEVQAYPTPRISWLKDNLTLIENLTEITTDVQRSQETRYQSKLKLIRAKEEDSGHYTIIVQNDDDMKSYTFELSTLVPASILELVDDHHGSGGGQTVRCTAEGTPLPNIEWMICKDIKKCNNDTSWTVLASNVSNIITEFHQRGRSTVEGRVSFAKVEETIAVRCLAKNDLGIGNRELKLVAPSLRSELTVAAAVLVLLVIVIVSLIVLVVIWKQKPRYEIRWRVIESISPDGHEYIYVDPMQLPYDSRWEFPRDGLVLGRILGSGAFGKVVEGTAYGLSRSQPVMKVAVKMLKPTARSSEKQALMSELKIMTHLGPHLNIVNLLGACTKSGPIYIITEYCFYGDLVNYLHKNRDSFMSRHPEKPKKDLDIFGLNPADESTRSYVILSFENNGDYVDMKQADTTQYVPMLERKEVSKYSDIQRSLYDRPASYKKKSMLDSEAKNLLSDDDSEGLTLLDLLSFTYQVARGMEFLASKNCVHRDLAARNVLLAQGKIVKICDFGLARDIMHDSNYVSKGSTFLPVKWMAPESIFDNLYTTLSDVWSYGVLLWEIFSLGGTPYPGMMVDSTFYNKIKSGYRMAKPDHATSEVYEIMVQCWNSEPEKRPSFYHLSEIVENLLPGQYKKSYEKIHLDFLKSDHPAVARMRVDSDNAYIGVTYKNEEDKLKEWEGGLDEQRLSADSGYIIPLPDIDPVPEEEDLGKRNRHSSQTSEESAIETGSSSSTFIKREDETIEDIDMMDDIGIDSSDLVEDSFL
UniProt P62198: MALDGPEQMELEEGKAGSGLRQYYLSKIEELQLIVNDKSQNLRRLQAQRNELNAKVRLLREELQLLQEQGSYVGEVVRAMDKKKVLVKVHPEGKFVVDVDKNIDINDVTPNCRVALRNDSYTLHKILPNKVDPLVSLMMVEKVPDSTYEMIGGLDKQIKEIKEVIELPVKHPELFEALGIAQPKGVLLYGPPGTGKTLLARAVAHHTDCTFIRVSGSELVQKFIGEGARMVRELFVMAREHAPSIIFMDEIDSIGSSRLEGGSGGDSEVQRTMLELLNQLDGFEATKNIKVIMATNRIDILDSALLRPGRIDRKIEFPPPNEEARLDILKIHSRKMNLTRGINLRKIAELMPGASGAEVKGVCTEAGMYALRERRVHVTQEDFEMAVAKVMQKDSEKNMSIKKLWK

How the values were obtained:
[1] = molecular target: p21-activated kinase 1 (PAK1) (rat (endogenous in primary rat OPCs)) (UniProt P35465); assay: affinity purification with mass spectrometry; 1 mg lysate of primary rat OPCs or differentiating OLs incubated overnight at 4 °C with 10 µg PAK1 antibody (#2602) or rabbit IgG isotype control; Protein A/G magnetic beads; on-bead trypsin digestion; LC-MS/MS
[2] = molecular target: p21-activated kinase 1 (PAK1) (rat (endogenous in primary rat OPCs)) (UniProt P35465); assay: as above; remark: listed apart in the source

Molecule: Psmc4 (from UniProt Q63570 1-418)
binding [1]: binds

B1: Xpnpep1 (protein, UniProt O54975 1-623)
chain: MAPKVTSELLRQLRQAMRNSECVAEPIQAYIIPSGDAHQSEYIAPCDCRRAFVSGFDGSAGTAIITEEHAAMWTDGRYFLQAAKQMDNNWTLMKMGLKDTPTQEDWLVSVLPEGSRVGVDPLIIPTDYWKKMAKVLRSAGHHLVPVKENLVDKIWTDRPERPCKPLLTLGLDYTGISWKEKVADLRLKMAERSIVWFVVTALDEIAWLFNLRGSDVEHNPVFFSYAIIGLERIMLFIDGDRIDAPGVKQHLLLDLGLEAEYKIQVLPYKSILSELKTLCADLSPREKVWVSDKASYAVSEAIPKDHRCCMPYTPICIAKAVKNSAESAGMRRAHIKDAVALCELFNWLEQEVPKGGVTEISAADKAEEFRRQQADFVDLSFPTISSTGPNGAIIHYAPIPETNRTLSLDEVYLIDSGAQYKDGTTDVTRTMHFGTPTAYEKECFTYVLKGHIAVSAAVFPTGTKGHLLDSFARSALWDSGLDYLHGTGHGVGSFLNVHEGPCGISYKTFSDEPLEAGMIVTDEPGYYEDGAFGIRIENVVLVVPAKTKYNFNNRGSLTFEPLTLVPIQTKMIDVDALTDKECDWLNSYHQTCRDVIGKELQTQGRQEALEWLLRETEPISRQH
binding [2]: binds

Continued, values first:

binding [1]: binds
Molecule: PDGFRa (from UniProt P20786 24-1088) (receptor)

binding [1]: binds
Molecule: Psmc5 (from UniProt P62198 1-406)

Where two headings read alike, the source gives them in different places. No constants are given. Whether binding was seen depends on the method and setting. Binding seen in cells or lysates may run through a third protein. A yes stands for co-enrichment or nearness to the bait. Other partners may have been found. One block for each molecule: values may come before it.
